# Over roughly 33,000 sequences, “E-score (-0.5 to 0.5)” has its median near -0.0014; the highest 2% begin near 0.25. The list shows a part of the results.
# Molecular target: T1, Cad1 (UniProt P24813)
# T1 sequence: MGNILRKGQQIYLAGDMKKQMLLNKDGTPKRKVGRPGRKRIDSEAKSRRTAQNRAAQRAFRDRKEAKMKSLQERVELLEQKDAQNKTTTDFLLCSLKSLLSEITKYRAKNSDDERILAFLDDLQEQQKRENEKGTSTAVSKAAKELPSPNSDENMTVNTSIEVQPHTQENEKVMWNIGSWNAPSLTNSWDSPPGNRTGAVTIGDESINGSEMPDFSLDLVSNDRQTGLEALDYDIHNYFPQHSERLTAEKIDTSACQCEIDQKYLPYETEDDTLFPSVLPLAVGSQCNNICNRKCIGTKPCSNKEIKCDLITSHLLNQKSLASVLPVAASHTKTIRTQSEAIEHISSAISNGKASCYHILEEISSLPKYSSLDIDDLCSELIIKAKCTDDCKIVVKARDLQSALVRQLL
# Assay: PBM E-score (8-mer binding enrichment) (E-score (-0.5 to 0.5)); higher = stronger / more preferred TF binding
# Settings: protein concentration: 100 nM; construct: GST-full length
# Procedure, shortened: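 Detection of bound protein used fluorescent anti-GST, with scans normalised by masliner. The proteins were GST-tagged yeast transcription factors applied at about 100-200 nM to universal all-10-mer Agilent arrays made double-stranded by primer extension. Each ungapped eight-base word, pooled with its reverse complement, was scored with an E-score from the Universal PBM Analysis Suite.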
row,Sequence,PBM E-score
1,ATGTAATA,0.334
2,GCTAATCC,0.0952
3,CACTGGGC,-0.0426
4,CTGTGGAA,-0.0153
5,CAAGATCG,0.025
6,CTGTAAGC,0.125
7,GGTGCATA,0.00671
8,AACGTCGC,-0.00801
9,AAGCCGGA,0.197
10,CTTGAACA,0.0739
11,CAAGAGCC,0.0977
12,ACCTCCCG,-0.177
13,TATCTGCA,0.0927
14,AATCCGGT,0.104
15,CGATGGCG,0.109
16,CAGGGGAC,-0.302
17,CTTCACCC,0.099
18,TACAAGGA,-0.0412
19,GGCTCCTA,-0.241
20,AAATTCTT,-0.103
21,AAATTAAT,0.288
22,CGCCTATA,-0.0376

# Part of the list above, tab-delimited.
row	Sequence	PBM E-score
18	TACAAGGA	-0.0412
19	GGCTCCTA	-0.241
20	AAATTCTT	-0.103

# Additional entries

row,Sequence,PBM E-score
1,GAGCCGAC,-0.279
2,GCCTTAGA,-0.129
3,CCTACACC,-0.143
4,CATATGGA,0.158
5,TGACGCCA,-0.0891
6,CTGAGAAG,-0.0896
7,ATTGCCCA,-0.0728
8,AGTCATCG,0.183
9,TCGTGTAA,0.0331
10,GACGGAGA,0.038
11,ACTAACCC,0.0825
12,CTCAAAAG,-0.0906
13,CGTATGCC,-0.142
14,TACCGCCA,0.0907
15,GACATAGA,-0.239
16,AAAGTGCG,0.00817
17,GTATCCAC,0.101
18,TTAGCAAA,0.0022
19,GCGCCAGA,0.0384
20,TCCATTAA,0.0162
21,GCTTGTAC,0.00405
22,CAATTGGC,0.176

row,Sequence,PBM E-score
1,ACCGAACA,0.106
2,CCGGAGCA,0.0399
3,ATTCATAG,0.0995
4,AGCTTGCG,0.0854
5,AATGTAGA,-0.109
6,AGAGTTAG,-0.0285
7,CTGTATAA,0.112
8,TGTACAAA,0.179
9,AGCTCTGC,-0.313
10,AACAAAAG,0.0576
11,GAGCTAGA,-0.178
12,AGGCGTCC,-0.0711
13,GGCGGAAC,0.0109
14,CATCCAGC,0.0753
15,CCATGGCC,-0.163
16,CTCTGAGA,-0.145
17,GACTCTTA,0.206
18,CCCTGAAC,0.229
19,GCGCAAGA,0.196
20,TACGATCA,0.0567
21,AAGCGAAG,-0.143
22,ATGTCTTG,0.0227

row,Sequence,PBM E-score
1,AGTGAATG,0.18
2,ACAATCAT,0.141
3,CGTGTATA,-0.0321
4,ATAGCGCA,0.0765
5,CGGGTCAG,0.0694
6,CGCGAAAG,0.0755
7,GATGAGAC,0.139
8,CTGCCTTC,-0.147
9,GCTCACCC,-0.17
10,AAGGCCAA,-0.0653
11,AACATCAT,0.118
12,AAGCCCAT,-0.184
13,CCTATTGA,0.0348
14,AGACCTAT,0.111
15,CCAGTTAA,0.147
16,AATTCATA,0.143
17,GTTATCCA,0.0106
18,CCATAGAC,-0.032
19,GACCGTCC,-0.207
20,AACACGTA,0.0625
